# Data as given in patent US7439253B2, “Heterocyclic compounds, their preparation and their use as medicaments, in particular as antibacterials and beta-lactamase inhibitors” (Novexel, priority 2002, dated 2008).
# Some of these results come from one statement about several compounds together. For at least one compound, name, drawing or mass did not settle the structure. Some ranges recur; such a range may be that of the whole group of compounds.
# Tested on: E. coli 250HT7
# Test: Activity in vitro, method of dilutions in liquid medium (MIC)
# Format: cell-based
# Conditions: 24 hours at 37° C.
row,Compound,"Gram-negative MIC μg/ml at 24 hours, E. coli 250HT7"
1,"NC(=O)[C@H]1c2ccc(OCC(O)CO)cc2[C@@H]2CN1C(=O)N2OS(=O)(=O)[O-].[Na+] (relative stereo) [Example 43, Sodium Salt of Trans-8-(2,3-dihydroxypropoxy)-1,2,3,5-tetrahydro-3-oxo-2-(sulfoxy)-1,4-methano-4H-2,4-benzodiazepine-5-carboxamide]",0.3 to 80 µg/mL
2,"COc1ccc(Cn2ncc3c2CN2CC3N(OS(=O)(=O)[O-])C2=O)cc1.[Na+] (stereo not shown) [Example 18, Sodium Salt of 1,4,5,8-tetrahydro-1-[(4-methoxyphenyl)methyl]-5-(sulfoxy)-6H-4,7-methanopyrazolo[3,4-e][1,3]diazepin-6-one]",0.3 to 80 µg/mL
3,"CCc1ccccc1-c1cc2c(s1)[C@@H](C(N)=O)N1C[C@H]2N(OS(=O)(=O)[O-])C1=O.[Na+] (relative stereo) [Example 26, Sodium Salt of Trans-2-(2-ethylphenyl)-4,5,6,8-tetrahydro-6-oxo-5-(sulfoxy)-4,7-methano-7H-thieno[2,3-e][1,3]diazepine-8-carboxamide]",0.3 to 80 µg/mL
4,"NC(=O)n1ncc2c1CN1CC2N(OS(=O)(=O)[O-])C1=O.[Na+] (stereo not shown) [Example 17, Sodium Salt of 4,5,6,8-tetrahydro-6-oxo-5-(sulfoxy)-1H-4,7-methanopyrazolo[3,4-e][1,3]diazepine-1-carboxamide]",0.3 to 80 µg/mL
